# Assay results from article PMC5661649, “G-protein-coupled receptors mediate 14-3-3 signal transduction” (Signal Transduction and Targeted Therapy, 2016).
# Test system: Raf-1/14-3-3 interaction
# Experiment: Kinase inhibition of FBS-stimulated Raf-1/14-3-3 interaction in U2OS cells
# Type: cell-based
# Settings: Figure 4d
# Experimental: Cells were cultured overnight.
# The LinkLight cells were cultured in a white 384-well plate overnight. The culture medium was then replaced with serum-free DMEM. Serial dilutions of kinase inhibitors were added to cells for 15 min, followed by agonist stimulation for 240 min and then by the luciferase assay as described above. For Raf-1/14-3-3 kinase inhibition assays, cells were preincubated with a kinase inhibitor (or two inhibitors at equal concentrations) for 15 min, followed by stimulation with 7.5% FBS for 180 min and then by the luciferase assay as described above.
structure (smiles),measurement,setting,value
CN[C@@H]1C[C@H]2O[C@@](C)([C@@H]1OC)n1c3ccccc3c3c4c(c5c6ccccc6n2c5c31)C(=O)NC4 [staurosporine],inhibition of FBS-stimulated Raf-1/14-3-3 interaction signals,7.5% FBS stimulation,blocked
same,inhibition of FBS-stimulated Raf-1/14-3-3 interaction signals at high concentrations,high concentrations,suppressed the Raf-1/14-3-3 signals below the baseline signal
